# Results taken from PubChem BioAssay AID1487 (National Center for Advancing Translational Sciences (NCATS), 2009).
# The other results are listed elsewhere or left out. These are further read-outs of the screen, such as a control signal, another cell line or another target. No call is given for them. Most of these compounds were active or inconclusive in the main read-out, so they are no random draw. Potencies come from curve fits of mixed quality, noted in brackets.
# Experiment: qHTS Assay for Modulators of Lamin A Splicing
# Conditions: HeLa LMNA splicing GFP/RFP minigene ratio, 48 h
# Outline: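 S3 HeLa cells stably expressing lamin A-EGFP splicing minigene plus DsRed2, 600 cells/well, 48 h compound exposure at 37C. Laser-scanning cytometry; analysed as GFP (500-530 nm)/RFP (575-640 nm) total intensity ratio; 0.5% DMSO vehicle.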
# [1] = measured here: GFP splicing reporter channel
# [2] = measured here: RFP viability control channel
SMILES,AC50 [1],AC50 [2]
O=C(C1COc2ccccc2O1)N1CCN(c2ccccc2Cl)CC1 (stereo not given),"0.794 µM [rising, full curve, poor fit]",–
CN(Cc1ccccc1)c1ncnc(N)c1[N+](=O)[O-],–,"28.2 µM [falling, partial curve]"
O=C(Nc1nccs1)c1ccc(Cl)c(S(=O)(=O)N2CCOCC2)c1,"35.5 µM [rising, single point]","31.6 µM [rising, single point]"
CCc1c(C)nc2ncnn2c1N1CCC(C(=O)NCc2cccc(OC)c2)CC1,–,"15.8 µM [rising, single point]"
Cc1ccc(S(=O)(=O)N2CCCc3cc(NS(=O)(=O)c4ccc(F)cc4)ccc32)cc1,–,"25.1 µM [rising, partial curve, poor fit]"
CCCOc1ccc(/C(CC)=N/NC(=O)C2(C)CC2(Br)Br)cc1 (stereo not given),"17.8 µM [rising, partial curve]","6.31 µM [rising, partial curve]"
CCC(=O)C1=C(c2ccccc2)N(C(=O)CC)n2c(nnc2-c2ccccc2)S1,–,"7.08 µM [rising, partial curve, poor fit]"
CN=C(Nc1ccc(Br)cc1)SC1CC(=O)N(c2ccc(OC)cc2)C1=O (stereo not given),"25.1 µM [rising, single point]","25.1 µM [rising, single point]"
Cc1ccc(C)c2c1cc(C)c1nnc(SCC(=O)Nc3nc4c(s3)CCCC4)n12,–,"20 µM [rising, partial curve]"
Cc1cccc2cc(CN(Cc3ccco3)C(c3nnnn3CCc3ccccc3)C(C)C)c(=O)[nH]c12 (stereo not given),–,"6.31 µM [rising, partial curve]"
COc1ccc(NC(=O)CSc2nnc(-c3ccccc3C)n2N)cc1,–,"2.51 µM [falling, partial curve, poor fit]"
C/C(N)=C(/C#N)C(=O)CSc1nc2cc(Cl)ccc2s1,–,"12.6 µM [rising, single point]"
CC(=O)Nc1ccccc1C(=O)C(=O)Nc1ccc(C)c(F)c1,–,"35.5 µM [rising, single point]"
CCCCc1nc2c(c3c1C[C@H](C)OC3)CN(C(=O)c1ccco1)CC2,"0.00141 µM [rising, full curve, poor fit]","0.891 µM [rising, partial curve, poor fit]"
O=S(=O)(/C=C/c1ccccc1)N1CCN(c2nc(-c3ccccc3)nc3ccccc23)CC1,"0.00501 µM [falling, full curve, poor fit]","0.00501 µM [falling, full curve, poor fit]"
O=S(=O)(CCc1nc2ccccc2[nH]1)c1ccc(Cl)cc1,–,"31.6 µM [rising, single point]"
Cc1ccc(/C=C/C(=O)c2ccccc(=O)c2O)c(C)c1,–,"10 µM [rising, partial curve]"
COc1ccc2[nH]c(C)c(CCNC(=S)Nc3cc(C)cc(C)c3)c2c1,"35.5 µM [rising, single point]","31.6 µM [rising, single point]"
COc1ccc(-c2cccc(NS(=O)(=O)c3cc(C(F)(F)F)ccc3Cl)c2)nn1,"7.08 µM [falling, full curve, poor fit]","11.2 µM [falling, partial curve, poor fit]"
Cn1cc(CCCC(=O)NCc2cccc(Br)c2)c2ccccc21,"10 µM [rising, partial curve]","5.62 µM [rising, partial curve]"
Cc1ccc(C(O)c2nc3ccccc3n2C(C)C)cc1 (stereo not given),–,"11.2 µM [rising, partial curve]"
Nc1ccc(N2CCN(c3ccc(Cl)c(Cl)c3)CC2)cc1,"7.08 µM [rising, partial curve, poor fit]","15.8 µM [rising, single point]"
O=C(CCc1ccccc1)N1CCc2c([nH]c3ccccc23)C1c1ccc(Cl)cc1 (stereo not given),"3.98 µM [falling, full curve, poor fit]",–
CCc1ccccc1NC(=O)CSc1nc2ncccc2o1,"14.1 µM [rising, single point]",–
CC(C)(C)c1nc(NCCN2CCOCC2)c2nnn(Cc3ccccc3Cl)c2n1,"5.01 µM [rising, full curve, poor fit]","4.47 µM [rising, partial curve, poor fit]"
CCCCCc1ccc(OCCCC[n+]2cccc(C)c2)c(CCCCC)c1,"0.316 µM [rising, partial curve]","0.158 µM [rising, full curve, poor fit]"
O=[n+]1cc(-c2ccc(Br)cc2)n([O-])c2c1CCC2,"35.5 µM [rising, single point]","35.5 µM [rising, single point]"

SMILES,AC50 [1],AC50 [2]
CCNc1ncc2nc(-c3cccs3)c(=O)n(-c3ccccc3)c2n1,"12.6 µM [falling, single point]","12.6 µM [falling, single point]"
Cc1c(NC(=O)COC(=O)C2(c3ccc(F)cc3)CCCC2)c(=O)n(-c2ccccc2)n1C,"0.0112 µM [falling, full curve]","0.02 µM [falling, full curve]"
Cc1ccc(NC(=O)CSC2=C(C#N)C(c3ccc4c(c3)OCO4)C3=C(CCCC3=O)N2)c(C)c1 (stereo not given),"11.2 µM [rising, single point]","11.2 µM [rising, single point]"
CCCCOc1ccc(CN(C)c2ncnc(N)n2)cc1,"12.6 µM [rising, partial curve, poor fit]","14.1 µM [rising, partial curve]"
O=C(Oc1c(Cl)cc(Cl)c2cccnc12)c1cccc([N+](=O)[O-])c1,–,"11.2 µM [rising, partial curve]"
CCCCCCCCCCCC(=O)NC1CCS(=O)(=O)C1 (stereo not given),"10 µM [falling, partial curve, poor fit]",–
CCn1c2ccccc2c2cc(/C(C)=N/O)ccc21,"2.24 µM [falling, partial curve, poor fit]","1.58 µM [falling, partial curve, poor fit]"
Cc1cccc(NC(=S)NCC23C=CC(O2)C2C(=O)N(c4ccc(Cl)cc4)C(=O)C23)c1 (stereo not given),–,"12.6 µM [rising, single point]"
Cc1c(C)n(Cc2ccccc2)c2ncnc(N)c12,"11.2 µM [rising, single point]",–
COc1ccc(NC(=S)Nc2ccc(S(N)(=O)=O)cc2)c(OC)c1,"12.6 µM [falling, partial curve, poor fit]",–
CN(C)c1ccc(-c2ccc3ncnc(NCc4ccccc4)c3c2)cc1,"35.5 µM [falling, single point]",–
CCNc1ccc(S(=O)(=O)N(C)C)cc1NCC(=O)Nc1ccc(F)c(Cl)c1,–,"12.6 µM [rising, partial curve]"
CC(C)N(Cc1cn[nH]c1-c1ccc(-c2ccccc2)cc1)Cc1nccn1C,"0.00501 µM [falling, full curve, poor fit]","0.00501 µM [falling, full curve, poor fit]"
O=C(Nc1nc(-c2cccs2)cs1)c1ccc(Cl)s1,–,"3.98 µM [rising, full curve, poor fit]"
O=C(N/N=C/c1sc(N2CCOCC2)nc1-c1ccccc1)c1ccccc1O,–,"35.5 µM [rising, single point]"
Cc1ccc(S(=O)(=O)c2cc3cc(Br)ccc3oc2=O)cc1,–,"3.16 µM [rising, single point]"
O=C(NC(=S)Nc1cccc(Cl)c1N1CCCCC1)c1ccc2c(c1)OCCO2,"35.5 µM [falling, single point]","35.5 µM [falling, single point]"
COc1ccc(CC(=O)Nc2ccc3nc(Nc4cccc(Cl)c4)cc(C)c3c2)cc1,–,"35.5 µM [rising, single point]"
CCCCCOC(=O)C1=C(C)Nc2ncnn2C1c1cccs1 (stereo not given),–,"17.8 µM [rising, single point]"
Cc1ccc(/C=N\NC(=O)Cc2cccn2C)o1,"7.08 µM [rising, partial curve, poor fit]",–
Cc1nc(CS(=O)(=O)c2ccccc2)cc(Sc2ccc(Cl)cc2Cl)n1,–,"35.5 µM [rising, single point]"
Cc1ccc(C(=O)N2CCN(c3ccc(NC(=S)NC(=O)c4cccs4)cc3)CC2)cc1,"8.91 µM [falling, partial curve, poor fit]","8.91 µM [falling, partial curve, poor fit]"
O=C(Nc1nc(-c2ccc(Cl)s2)cs1)c1ccncc1,"1.41 µM [rising, partial curve, poor fit]","3.16 µM [rising, full curve]"
CCOC(=O)C1Sc2[nH]c(=O)sc2C(c2ccc(Cl)cc2)C1C(=O)OCC (stereo not given),–,"8.91 µM [rising, partial curve]"
NCCCC[C@@H]1NC(=O)[C@H](CCC(=O)O)NC(=O)c2cc([N+](=O)[O-])cc(I)c2NCC[C@@H](C(N)=O)NC1=O,"20 µM [rising, single point]","15.8 µM [rising, partial curve, poor fit]"
COc1ccc(-c2cc(C(=O)Nc3ccccc3N3CCOCC3)c3ccccc3n2)cc1OC,–,"7.08 µM [rising, partial curve]"

# Nothing new here: an excerpt of the list.
SMILES,AC50 [1],AC50 [2]
CCCCOc1ccc(CN(C)c2ncnc(N)n2)cc1,"12.6 µM [rising, partial curve, poor fit]","14.1 µM [rising, partial curve]"
O=C(Oc1c(Cl)cc(Cl)c2cccnc12)c1cccc([N+](=O)[O-])c1,–,"11.2 µM [rising, partial curve]"
